# According to the supplement of paper PMC8728848:
# The other results are listed elsewhere or left out.
# B1: CcfD (Bacteroides vulgatus), A6KYX8 (protein)
# chain: MKYKNYFKSIIYLALGAFTLGSCEDFLDRQEDEKLTFDKIWESRNTTQQYWLNAMSFLPNENGSLQGDTEPYLGASDECTIAYDRQYRWINFGTWNPSQVPYYKMDHYYKGIRECNIFLQNVYKCSDPLVTKDQLDEWYWQTRFARAYYYFLMMRDYGPVFLLGDDLLDFTASTEELYRPRNTWDQCVNYVVSEMTQCAESGVVLQQSDLPAAKWGLATVGTCHAVISRLLLYSARPLFNGNKLYSTVKNPDAPDFPELSGVKLFPELDNTKWQKAAEAAKKLIDNPCYELYRAGNDNPYEDYYGVTHETWNKELIWTDRYNGLFSWGVGTVPTGVAGTAYGAVGPTQALVDAYAMNTGWYPITGYEADGTPIVEPLSGYELASELEKSSWIYPSGGWSNKADFEIEAPNMYKDREPRFYVTVFFGGNQWLHGNSATSISFAKGGNGNKSHDYPKSGYLCNRFYDHKLNSSEGQWGNITFPVFRLGEIYLNFIEAVLECKKNGVALDPSYEALAMEKWADLRKRAGLDPITSIYGQVSTEELIQLCRKERQIELAFERHRYFDTRTWMIATQTDNGKMYGMNTSCPLDAGMKGTETPDGFWERTAFETRVFQNKHYLYPFSQRELDRNKLLTQNYGW
# Legend:
# Experiment in all cases: glycan array binding signal (z-score within array); higher = stronger binding
# Details in all cases: glycan notation: IUPAC condensed, linker removed
# GalNAc(b1-4)GlcNAc = target: GalNAc(b1-4)GlcNAc
# Procedure, shortened: (§1)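 Columns mapping to the same glycan were averaged after glycan names were converted to IUPAC-condensed notation. The data come from 3228 arrays in the Consortium for Functional Glycomics database, limited to those with an available protein sequence. Binding is reported as a within-array Z-score averaged across arrays of one protein sequence and across linkers.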
# [1] = target: GalNAc(b1-4)GlcNAc(b1-2)Man
# Procedure, shortened: as §1
# [2] = target: GalNAc(b1-4)GlcNAc(b1-2)Man(a1-3)[GalNAc(b1-4)GlcNAc(b1-2)Man(a1-6)]Man(b1-4)GlcNAc(b1-4)GlcNAc
# Procedure, shortened: as §1
# [3] = target: GalNAc(b1-4)GlcNAc(b1-3)GalNAc(b1-4)GlcNAc
# Procedure, shortened: as §1
# GalNAc(b1-4)GlcNAc6S = target: GalNAc(b1-4)GlcNAc6S
# Procedure, shortened: as §1
# GalNAc(b1-6)GalNAc = target: GalNAc(b1-6)GalNAc
# Procedure, shortened: as §1
# GalNAc3S(b1-4)GlcNAc = target: GalNAc3S(b1-4)GlcNAc
# Procedure, shortened: as §1
# GalNAc3S(b1-4)GlcNAc3S = target: GalNAc3S(b1-4)GlcNAc3S
# Procedure, shortened: as §1
# [4] = target: GalNAc3S(b1-4)[Fuc(a1-3)]GlcNAc
# Procedure, shortened: as §1
# GalNAc4S6S(b1-4)GlcNAc = target: GalNAc4S6S(b1-4)GlcNAc
# Procedure, shortened: as §1
# GalNAc6S(b1-4)GlcNAc = target: GalNAc6S(b1-4)GlcNAc
# Procedure, shortened: as §1
# Glc(a1-4)Glc = target: Glc(a1-4)Glc
# Procedure, shortened: as §1
# [5] = target: Glc(a1-4)Glc(a1-4)Glc(a1-4)Glc
# Procedure, shortened: as §1
# Glc(a1-6)Glc(a1-6)Glc = target: Glc(a1-6)Glc(a1-6)Glc
# Procedure, shortened: as §1
# [6] = target: Glc(a1-6)Glc(a1-6)Glc(a1-6)Glc
# Procedure, shortened: as §1
# Glc(b1-4)Glc = target: Glc(b1-4)Glc
# Procedure, shortened: as §1
# Glc(b1-6)Glc = target: Glc(b1-6)Glc
# Procedure, shortened: as §1
# GlcA(b1-3)Gal = target: GlcA(b1-3)Gal
# Procedure, shortened: as §1
# GlcA(b1-3)GlcNAc = target: GlcA(b1-3)GlcNAc
# Procedure, shortened: as §1
# GlcA(b1-6)Gal = target: GlcA(b1-6)Gal
# Procedure, shortened: as §1
# [7] = target: GlcA3S(b1-3)Gal(b1-4)GlcNAc(b1-2)Man
# Procedure, shortened: as §1
# [8] = target: GlcA3S(b1-3)Gal(b1-4)GlcNAc(b1-3)Gal(b1-4)Glc
# Procedure, shortened: as §1
# [9] = target: GlcNAc(a1-3)Gal(b1-4)GlcNAc
# Procedure, shortened: as §1
# [10] = target: GlcNAc(a1-4)Gal(b1-3)GlcNAc
# Procedure, shortened: as §1
# [11] = target: GlcNAc(a1-4)Gal(b1-4)GalNAc
# Procedure, shortened: as §1
# [12] = target: GlcNAc(a1-4)Gal(b1-4)GlcNAc
# Procedure, shortened: as §1
# [13] = target: GlcNAc(a1-4)Gal(b1-4)GlcNAc(b1-3)Gal(b1-4)Glc
# Procedure, shortened: as §1
# [14] = target: GlcNAc(a1-4)Gal(b1-4)GlcNAc(b1-3)Gal(b1-4)GlcNAc
# Procedure, shortened: as §1
# [15] = target: GlcNAc(a1-4)Gal(b1-4)GlcNAc(b1-3)Gal(b1-4)GlcNAc(b1-3)Gal(b1-4)GlcNAc
# Procedure, shortened: as §1
# [16] = target: GlcNAc(a1-4)Gal(b1-4)GlcNAc(b1-3)Gal(b1-4)[Fuc(a1-3)]GlcNAc(b1-3)Gal(b1-4)[Fuc(a1-3)]GlcNAc
# Procedure, shortened: as §1
binder,measurement,setting,value
B1,glycan array binding signal (z-score),GalNAc(b1-4)GlcNAc,-0.091
same,glycan array binding signal (z-score),[1],-0.896
same,glycan array binding signal (z-score),[2],-0.683
same,glycan array binding signal (z-score),[3],-0.099
same,glycan array binding signal (z-score),GalNAc(b1-4)GlcNAc6S,-0.581
same,glycan array binding signal (z-score),GalNAc(b1-6)GalNAc,0.521
same,glycan array binding signal (z-score),GalNAc3S(b1-4)GlcNAc,-0.104
same,glycan array binding signal (z-score),GalNAc3S(b1-4)GlcNAc3S,-0.21
same,glycan array binding signal (z-score),[4],-0.18
same,glycan array binding signal (z-score),GalNAc4S6S(b1-4)GlcNAc,0.948
same,glycan array binding signal (z-score),GalNAc6S(b1-4)GlcNAc,-0.282
same,glycan array binding signal (z-score),Glc(a1-4)Glc,0.087
same,glycan array binding signal (z-score),[5],1.25
same,glycan array binding signal (z-score),Glc(a1-6)Glc(a1-6)Glc,-0.571
same,glycan array binding signal (z-score),[6],-0.363
same,glycan array binding signal (z-score),Glc(b1-4)Glc,0.404
same,glycan array binding signal (z-score),Glc(b1-6)Glc,-0.139
same,glycan array binding signal (z-score),GlcA(b1-3)Gal,-0.835
same,glycan array binding signal (z-score),GlcA(b1-3)GlcNAc,0.374
same,glycan array binding signal (z-score),GlcA(b1-6)Gal,-0.708
same,glycan array binding signal (z-score),[7],-0.404
same,glycan array binding signal (z-score),[8],-0.317
same,glycan array binding signal (z-score),[9],-0.236
same,glycan array binding signal (z-score),[10],1.04
same,glycan array binding signal (z-score),[11],0.669
same,glycan array binding signal (z-score),[12],-0.622
same,glycan array binding signal (z-score),[13],-0.724
same,glycan array binding signal (z-score),[14],-0.114
same,glycan array binding signal (z-score),[15],-0.581
same,glycan array binding signal (z-score),[16],-0.531

# A section from further up, for reference:
binder,measurement,setting,value
B1,glycan array binding signal (z-score),Glc(b1-4)Glc,0.404
same,glycan array binding signal (z-score),Glc(b1-6)Glc,-0.139
